Assay results as given in PubChem BioAssay AID624291 (National Center for Advancing Translational Sciences (NCATS), 2012).
Screen size: about 350,000 compounds; about 220 (0.063%) were called active. The inconclusive results got no clear call from the source; some entries with a clear call stand among them for comparison. The call rests on the fitted dose curve; in most records, active means well fitted activation curve with a large enough effect; inconclusive means small, poorly fitted or top-dose-only effect; inactive means no such curve, though single readings can be large or run the other way. A potency beside an inconclusive call is a rough fit, not a confirmed value.

Test: qHTS for Activators of Integrin-Mediated Alleviation for Muscular Dystrophy; further: nearly all actives have a fitted effect of over 60% in size;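 on activation: 100% = response of the positive control SU9516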
Conditions: alpha7betagal myoblasts, beta-gal FDG fluorescence, 48 h; activation: at 38.3 µM (top of the series)
Summary of the method: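 Alpha7betagal+/- myoblasts (passage 13) were plated 16-24 hr, then exposed to compounds (1:260 dilution of DMSO stock) for 48 hours at 37C. After MPER lysis, β-galactosidase reporter activity was read as FDG fluorescence (ex 480/em 540) after 30 minutes.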
Potency means the concentration at half of the fitted maximal effect.

Structure (SMILES)	activation	Potency
Cc1nc(NC(=O)CSc2cc(C)c3ccccc3n2)c(Cl)cc1Cl	inactive: 19.5%	
COc1ccc(Br)cc1C(=O)Nc1cccc2ncccc12		inconclusive: 5.01 µM [activator, single point]
N#Cc1ccc(CN2CCN(C(=O)c3cc(C4CC4)nn3-c3ccccc3)CC2)cc1		inconclusive: 5.01 µM [activator, single point]
Cc1cc(Br)ccc1NC(=O)CNC(=O)c1ccc(-n2cncn2)c([N+](=O)[O-])c1	inactive: 0%	
Cc1cc(C)cc(NC(=O)N2CCC(NC(=O)c3ccco3)CC2)c1		inconclusive: 12.6 µM [activator, single point]
O=c1[nH]c2ccccc2c(=O)c2ccccc12	inactive: -6.92%	
O=C(NNC(=O)c1ccccn1)c1cccc([N+](=O)[O-])c1		inconclusive: 0.501 µM [activator, full curve, poor fit]
CCc1cc[n+](-c2nc3ccccc3nc2[N-]S(=O)(=O)c2ccc(Br)s2)cc1		inconclusive: 2.24 µM [activator, single point]
O=C(CSCc1ccccc1Cl)N/N=C/c1ccco1		inconclusive: 5.01 µM [activator, single point]
Cc1cccc(N2C(=O)C(CC(=O)Nc3cccc(F)c3)N(CCc3ccncc3)C2=O)c1 (configuration not stated)	inactive: -27.3%	
Cc1cc(C)cc(C(=O)Nc2ccncc2)c1		inconclusive: 3.55 µM [activator, full curve, poor fit]
NS(=O)(=O)c1ccc(CCNC(=O)CNC(=O)c2ccccc2Br)cc1		inconclusive: 8.91 µM [activator, partial curve, poor fit]
CN(C(=O)COc1cccc(C#N)c1)C1CCS(=O)(=O)C1 (configuration not stated)		inconclusive: 0.282 µM [activator, partial curve, poor fit]
CCOC(=O)N1CCC(N(CCN(C)C)C(=S)Nc2ccccc2Cl)CC1		inconclusive: 4.47 µM [activator, partial curve, poor fit]
CN(C)c1cccc(C(=O)NC2CCCCCC2)c1	inactive: -33.9%	
c1ccc(OCCN2CCN(C(c3ccccc3)c3ccccc3)CC2)cc1	inactive: -44.1%	
Fc1ccc(C2CC(c3ccco3)=NN2c2ccccc2)cc1 (configuration not stated)	inactive: 9.04%	
O=c1c2ccccc2c(-c2ccc(O)cc2)nn1-c1cccc(C(F)(F)F)c1	inactive: -45.4%	
CCn1nc(NC(=O)Cc2ccc(OC)cc2)c2cc3cc(C)ccc3nc21	inactive: 17.2%	
Cc1ccc(NC(=O)COC(=O)c2cc(Cl)cc(Cl)c2)c(Br)c1		inconclusive: 28.2 µM [activator, single point]
Cc1cc(Cl)ccc1OCC(=O)N1CCN(c2ncccn2)CC1		inconclusive: 5.01 µM [activator, single point]
CCOCc1nnc(NC(=O)c2cc(OC)cc(OC)c2)s1		inconclusive: 7.94 µM [activator, partial curve, poor fit]
O=C(/C=C/c1ccc(-c2ccccc2)o1)c1ccccc1	inactive: -14.1%	
Cn1c(CCNC(=O)c2ccco2)nc2cc(NC(=O)c3ccccc3)ccc21		inconclusive: 0.501 µM [activator, full curve, poor fit]
COc1ccc(S(=O)(=O)N2CCCCCC2)cc1C(=O)N1CCCCC1		inconclusive: 28.2 µM [activator, single point]
C/C(=N\NC(=O)c1c(Cl)c(C)nn1C)c1ccc(NC(=O)COc2ccc(Cl)cc2C)cc1	inactive: -3.41%	

Structure (SMILES)	activation	Potency
CN(C)CCC(=O)N1C/C(=C/c2ccccc2)C(=O)/C(=C\c2ccccc2)C1	inactive: -54%	
OCCc1ccc(O)c(-n2nc3ccccc3n2)c1	inactive: 4.22%	
O=C1CC(c2nc3ccccc3[nH]2)CN1c1ccccc1 (configuration not stated)		inconclusive: 11.2 µM [activator, single point]
O=C(COc1ccccc1)Nc1ccccc1Cl		inconclusive: 8.91 µM [activator, partial curve, poor fit]
c1ccc(COc2ccc(OCCOCCn3cncn3)cc2)cc1		inconclusive: 3.16 µM [activator, single point]
O=C(/C=C(\c1ccccc1)n1cncn1)c1ccccc1		inconclusive: 8.91 µM [activator, partial curve, poor fit]
Cc1[nH][nH]c(=O)c1C(c1ccc(F)cc1)c1c(C)[nH][nH]c1=O		inconclusive: 5.01 µM [activator, single point]
O=C(NCC(c1ccco1)N1CCCCC1)c1ccc(OCc2ccccc2)cc1 (configuration not stated)		inconclusive: 11.2 µM [activator, partial curve, poor fit]
O=C1COc2ccc(S(=O)(=O)N3CCCC3)cc2N1		inconclusive: 28.2 µM [activator, partial curve, poor fit]
Cc1cc(C)c(C#N)c(N2CCN(S(=O)(=O)Cc3ccccc3)CC2)n1		inconclusive: 5.01 µM [activator, single point]
COc1cc(CCNC2=CC(=O)c3ncccc3C2=O)ccc1O	inactive: -45.8%	
OCCNc1nc2ccccc2nc1NCCO		inconclusive: 5.01 µM [activator, single point]
COc1ccc(NC(=O)C(=O)c2cn(CC(=O)N3CCCC3)c3ccccc23)cc1	inactive: -12.4%	
COc1ccccc1N(CC(=O)NCCSCc1ccco1)S(=O)(=O)c1ccccc1	inactive: 11.8%	
CSc1ccc(CNC(C)(C)CO)cc1		inconclusive: 3.16 µM [activator, single point]
CCOC(=O)N1CCN(C(=O)/C(=C/c2cccs2)NC(=O)c2ccc(OC)c(OC)c2)CC1		inconclusive: 11.2 µM [activator, partial curve, poor fit]
C/C(=N\O)C(=O)C(CN1CCCCC1)CN1CCCCC1	inactive: -28.9%	
O=C(NC1CCC(O)CC1)c1ccc(-c2ccc([N+](=O)[O-])cc2)o1 (configuration not stated)	inactive: 3.04%	
Cc1ccc(NC(=O)CCN2CCN(C/C=C/c3ccccc3)CC2)cc1C	inactive: -27.5%	
Cc1onc(-c2ccccc2Cl)c1C(=O)NC(=S)Nc1ccc(C(C)(C)C)cc1	inactive: 2.5%	
Cc1ccccc1OCC(O)Cn1c(Br)nc2c1c(=O)n(C)c(=O)n2C (configuration not stated)		inconclusive: 10 µM [activator, single point]
CCN1CCN(CCCN(Cc2ccco2)C(=S)Nc2ccc(Cl)c(C)c2)CC1	inactive: -43.7%	
CN(C(=S)Oc1ccc(C(=O)Nc2ccccc2)cc1)c1ccccc1		inconclusive: 5.01 µM [activator, single point]
COC(=O)c1[nH]c2cc(OC)c(OC)cc2c1/C=N/Nc1ccccc1		inconclusive: 31.6 µM [activator, single point]
O=C(NCc1ccccn1)C1CCCN(S(=O)(=O)c2cc(Cl)ccc2Cl)C1 (configuration not stated)	inactive: -57.4%	
CC(=O)Nc1cccc(/C(C)=N/NC(=S)NC(C)C)c1	inactive: -9.28%	

A few values from the results shown:
activation with COc1cc(CCNC2=CC(=O)c3ncccc3C2=O)ccc1O is entered as inactive: -45.8%
Potency with CCOC(=O)N1CCN(C(=O)/C(=C/c2cccs2)NC(=O)c2ccc(OC)c(OC)c2)CC1 is entered as inconclusive: 11.2 µM [activator, partial curve, poor fit]
Potency with Cc1cc(C)c(C#N)c(N2CCN(S(=O)(=O)Cc3ccccc3)CC2)n1 is entered as inconclusive: 5.01 µM [activator, single point]
activation with Cc1onc(-c2ccccc2Cl)c1C(=O)NC(=S)Nc1ccc(C(C)(C)C)cc1 is entered as inactive: 2.5%
Potency with O=C1CC(c2nc3ccccc3[nH]2)CN1c1ccccc1 (configuration not stated) is entered as inconclusive: 11.2 µM [activator, single point]
activation with O=C(NCc1ccccn1)C1CCCN(S(=O)(=O)c2cc(Cl)ccc2Cl)C1 (configuration not stated) is entered as inactive: -57.4%

(next part)

Structure (SMILES)	activation	Potency
CCN(C(=O)CSc1cc(C)c2ccc(OC)cc2n1)C1CCS(=O)(=O)C1 (configuration not stated)		inconclusive: 2.51 µM [activator, partial curve, poor fit]
COc1ccc2sc(N(CCCN(C)C)C(=O)c3ccc(S(=O)(=O)N4CCCc5ccccc54)cc3)nc2c1	inactive: -19.3%	
CC(C)(C)c1ccc(OCc2ccc(C(=O)N/N=C/c3ccc([N+](=O)[O-])cc3)o2)cc1	inactive: -0.0439%	
CCCCOc1ccc(Br)cc1/C(C)=N/NC1=NCCN1	inactive: -65.3%	
COc1ccc(/C=N/NC(=S)Nc2ccccc2)cc1	inactive: -39.2%	
CCC(C)N(C(=O)c1csnn1)C(C(=O)NC1CCCC1)c1c(F)cccc1Cl (configuration not stated)		inconclusive: 3.16 µM [activator, partial curve, poor fit]
Cc1ccc(S(=O)(=O)/N=C2\C=C(NS(=O)(=O)c3ccccc3)C(=O)c3ccccc32)c(C)c1	inactive: 12.3%	
Cc1ccccc1OCC(=O)Nc1ccc2c(c1)n(C)c(=O)n2C		inconclusive: 3.55 µM [activator, single point]
CC(=O)Nc1cccc(C(=O)Nc2cccc3ncccc23)c1	inactive: -26.1%	
COc1ccc(NC(=O)CSc2ccc(NC(C)=O)cc2)cc1S(=O)(=O)N1CCCCC1	inactive: -11.4%	
Cc1nc([N+](=O)[O-])c(Br)n1CC(=O)c1ccc(Br)cc1	inactive: -60.3%	
CCCc1c2ccccc2nc2ccccc12	inactive: 19.2%	
CCOc1ccc(N=C2SCCCN2C(=O)c2c(CC)noc2C)cc1		inconclusive: 7.08 µM [activator, partial curve, poor fit]
CN(Cc1ccccn1)Cc1nc(-c2ccc(Cl)cc2)no1		inconclusive: 28.2 µM [activator, single point]
CC(NC(=O)COC(=O)C1CCCCC1)c1ccccc1 (configuration not stated)		inconclusive: 0.316 µM [activator, partial curve, poor fit]
CCc1nnc(NC(=O)c2ccc(S(=O)(=O)N3CCCCCC3)cc2)s1	inactive: 25%	
O=c1[nH]c(/C=C/c2ccc([N+](=O)[O-])cc2)c([N+](=O)[O-])c(=O)[nH]1		inconclusive: 14.1 µM [activator, single point]
O=C(NCc1ccccn1)c1nc(-c2ccc(C(F)(F)F)cc2)no1	inactive: 43.3%	
COc1ccc(-n2c(=S)[nH]c3ccccc3c2=S)cc1	inactive: -18.3%	
O=C(Nc1cc(Br)ccc1O)C1CC(c2ccccc2Cl)=NO1 (configuration not stated)		active: 12.6 µM
O=C(NCc1ccc(F)cc1)c1cccc(S(=O)(=O)N2CCOCC2)c1	inactive: 9.95%	
CCn1c2ccccc2c2cc(Nc3cc(C)nc4ncnn34)ccc21	inactive: -15.8%	
O=C(c1ccc(OC2CCN(CCCc3ccccc3)CC2)cc1)N1CCCC1		inconclusive: 3.16 µM [activator, single point]
COC(=O)C1=C(C)Nc2sc(C(N)=O)c(N)c2C1c1ccncc1 (configuration not stated)	inactive: -45.6%	
CCN(C(=O)COC(=O)c1ccc(Cl)c(N)c1)C1CCS(=O)(=O)C1 (configuration not stated)		inconclusive: 12.6 µM [activator, single point]
